# Measured data: PubChem BioAssay AID1259254 (NCATS, 2017)
# Assay: 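Genome-wide screen for genes that prevent DNA re-replication in cancer cells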 (primary screen)
# System: human HCT116 colorectal cancer cells
# Knock-down reagent: single siRNA against human genes
# Time to read-out: 3 days
# Measurement: 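Nuclei stained with Hoechst and imaged; cell-cycle phase assigned by DNA content; G2 share scaled per plate, non-targeting siRNA 0%, GMNN siRNA 100%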
# Reading the numbers: G2 robust z-score and G2 cells, % of GMNN control: higher = more G2 cells, more excess DNA replication; raw share of cells in G2: higher = larger share of cells with G2 DNA content
# Call rule: 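Active siRNAs have a G2 robust z of 5 or more median absolute deviations over the median, which in these data means about 38% or higher of GMNN control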
# This is an unselected part of about 59,000 reagents tested. About 1,550 of them (2.6%) were called active. 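G2 share is only a proxy for re-replication; each gene was hit by three separate siRNAs, and active genes were retested.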 Raw values are not corrected between plates. A number with no mark means an inactive call. Reagents against one gene are numbered here. Not stated in the record: the amount of reagent.
gene,reagent no.,G2 robust z-score,"G2 cells, % of GMNN control",raw share of cells in G2 (%)
FUT2 (GeneID 2524),1,1.27,11.9,9.55
FUT2 (GeneID 2524),2,0.762,8.33,8.43
FUT2 (GeneID 2524),3,-0.595,-1.22,3.22
MTSS2 (GeneID 92154),1,0.307,5.12,6.26
MTSS2 (GeneID 92154),2,-0.302,0.841,3.26
MTSS2 (GeneID 92154),3,3.52,27.7,11.7
VSIG4 (GeneID 11326),1,0.043,3.27,6.27
VSIG4 (GeneID 11326),2,0.889,9.22,7.94
VSIG4 (GeneID 11326),3,3.13,25,12.5
LDLRAP1 (GeneID 26119),1,0.126,3.86,5.86
LDLRAP1 (GeneID 26119),2,-0.195,1.6,4.63
LDLRAP1 (GeneID 26119),3,-0.667,-1.73,2.69
MYMK (GeneID 389827),1,-0.303,0.838,4.99
MYMK (GeneID 389827),2,-0.596,-1.23,3.35
MYMK (GeneID 389827),3,-0.136,2.01,4.28
SLC2A5 (GeneID 6518),1,1.66,14.7,9.57
SLC2A5 (GeneID 6518),2,0.273,4.89,5.57
SLC2A5 (GeneID 6518),3,0.94,9.58,8.91
PLXNB1 (GeneID 5364),1,2.77,22.4,14.5
PLXNB1 (GeneID 5364),2,3.92,30.5,16.3
PLXNB1 (GeneID 5364),3,0.484,6.37,5.66
EPG5 (GeneID 57724),1,-0.466,-0.315,4.22
EPG5 (GeneID 57724),2,0.482,6.36,7.5
EPG5 (GeneID 57724),3,-0.349,0.51,3.19
TUBG2 (GeneID 27175),1,2.28,19,10.2
TUBG2 (GeneID 27175),2,0.599,7.18,9.42
TUBG2 (GeneID 27175),3,-0.277,1.02,4.53
NUDT10 (GeneID 170685),1,1.45,13.2,8.33
NUDT10 (GeneID 170685),2,-0.543,-0.851,2.67
NUDT10 (GeneID 170685),3,0.57,6.98,4.97
PRRT2 (GeneID 112476),1,2.32,19.3,11.8
PRRT2 (GeneID 112476),2,-0.749,-2.31,2.64
PRRT2 (GeneID 112476),3,-1.03,-4.29,0.566
GAD1 (GeneID 2571),1,-1.08,-4.65,2
GAD1 (GeneID 2571),2,-0.546,-0.874,4.92
GAD1 (GeneID 2571),3,0.0876,3.58,6.63
HTR3B (GeneID 9177),1,0.207,4.42,6.9
HTR3B (GeneID 9177),2,3.09,24.7,13.1
HTR3B (GeneID 9177),3,-1.24,-5.73,2.14
DDB2 (GeneID 1643),1,-0.996,-4.04,3.52
DDB2 (GeneID 1643),2,-0.606,-1.3,3.65
DDB2 (GeneID 1643),3,1.16,11.2,8.94
FNBP1 (GeneID 23048),1,0.533,6.72,9.07
FNBP1 (GeneID 23048),2,0.164,4.12,5.53
FNBP1 (GeneID 23048),3,-0.678,-1.81,3.25
LRRC19 (GeneID 64922),1,0.995,9.97,7.87
LRRC19 (GeneID 64922),2,1.76,15.3,12
LRRC19 (GeneID 64922),3,-0.577,-1.09,3.83
SMYD5 (GeneID 10322),1,-0.53,-0.76,3.27
SMYD5 (GeneID 10322),2,1.06,10.4,10.6
SMYD5 (GeneID 10322),3,-0.165,1.8,4.09
DNM1 (GeneID 1759),1,-1.26,-5.91,3.75
DNM1 (GeneID 1759),2,0.128,3.87,6.6
DNM1 (GeneID 1759),3,-0.713,-2.05,3.03
CIMIP1 (GeneID 128602),1,2.24,18.7,11.2
CIMIP1 (GeneID 128602),2,-0.866,-3.13,2.11
CIMIP1 (GeneID 128602),3,-0.212,1.48,3.11
ZNF181 (GeneID 339318),1,0.732,8.12,5.88
ZNF181 (GeneID 339318),2,0.34,5.36,5.03
ZNF181 (GeneID 339318),3,2.59,21.2,11
CYB5R2 (GeneID 51700),1,0.6,7.19,6.56
CYB5R2 (GeneID 51700),2,0.328,5.28,8.35
CYB5R2 (GeneID 51700),3,0.345,5.4,6.24
SELENOM (GeneID 140606),1,1.47,13.3,9.18
SELENOM (GeneID 140606),2,-1.2,-5.48,1.36
SELENOM (GeneID 140606),3,-0.51,-0.621,2.35
MAGEA4 (GeneID 4103),1,0.249,4.72,5.06
MAGEA4 (GeneID 4103),2,3.65,28.7,17.2
MAGEA4 (GeneID 4103),3,-0.915,-3.47,2.85

8 entries already listed, ordered by “G2 cells, % of GMNN control”, low to high.
gene,reagent no.,G2 robust z-score,"G2 cells, % of GMNN control",raw share of cells in G2 (%)
FUT2 (GeneID 2524),3,-0.595,-1.22,3.22
MTSS2 (GeneID 92154),2,-0.302,0.841,3.26
VSIG4 (GeneID 11326),1,0.043,3.27,6.27
MTSS2 (GeneID 92154),1,0.307,5.12,6.26
FUT2 (GeneID 2524),2,0.762,8.33,8.43
VSIG4 (GeneID 11326),2,0.889,9.22,7.94
FUT2 (GeneID 2524),1,1.27,11.9,9.55
MTSS2 (GeneID 92154),3,3.52,27.7,11.7
